Values from PubChem BioAssay AID652259 (Drosophila RNAi Screening Center, 2013)

Purpose: 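Genome-wide hunt for genes that control Wingless pathway activity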 (primary screen)
Cell system: Drosophila clone 8 imaginal disc epithelial cells
Knock-down reagent: long dsRNA against Drosophila genes
Challenge: pathway stimulated by co-transfected Wingless expression plasmid
Read-out: 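Dual luciferase reads per well after Wingless plasmid stimulation: reporter firefly light and Renilla control light; activity is firefly divided by Renilla, a ratio not deposited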
Scale: firefly reporter light: higher = more Wg reporter light, before normalisation; Renilla control light: higher = more transfected or surviving cells
Active means: 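Strong candidates differ from their plate mean by at least two out of four per-plate statistical tests; weak candidates meet just one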
Calls: active = candidate regulator (raises or lowers reporter); inactive = not a candidate
The screen tested about 22,000 reagents; below is a random part of those that have a named target and a result. Of all reagents, 233 (1.1%) are marked active. 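Light values are raw, unnormalised plate reads; the ratio scores behind the reporter calls were not deposited.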 Unmarked entries are inactive. The record does not give: the amount of reagent, the time to read-out, the dose of the treatment.

For CG34433 [DRSC15077], how do the results read?
firefly reporter light, replicate 1: 7745; Renilla control light, replicate 1: 3366

What did the screen give for cl [DRSC02118]?
firefly reporter light, replicate 1: 10832; Renilla control light, replicate 1: 5336

Which result is listed for Dim1 [DRSC00563]?
firefly reporter light, replicate 1: 1842; firefly reporter light, replicate 2: 3706; Renilla control light, replicate 1: 509; Renilla control light, replicate 2: 1625

For PNUTS [DRSC00638], what does the deposit list?
firefly reporter light, replicate 1: 6404; Renilla control light, replicate 1: 3752

What did the screen give for PNUTS [DRSC22136]?
firefly reporter light, replicate 1: 7.56e5; firefly reporter light, replicate 2: 7.42e5; Renilla control light, replicate 1: 3.29e5; Renilla control light, replicate 2: 3.59e5

How did the screen score CG32023 [DRSC08946]?
firefly reporter light, replicate 1: 5216; Renilla control light, replicate 1: 2151

Which result is listed for CG2767 [DRSC15451]?
firefly reporter light, replicate 1: 5595; Renilla control light, replicate 1: 2332

Which result is listed for CG33784 [DRSC12764]?
firefly reporter light, replicate 1: 4041; Renilla control light, replicate 1: 1787

For CG8916 [DRSC20120], what was measured?
firefly reporter light, replicate 1: 18838; Renilla control light, replicate 1: 7334

What is on record for Idh [DRSC10779]?
firefly reporter light, replicate 1: 4152; Renilla control light, replicate 1: 2305

With CG4982 [DRSC10465], how do the results read?
firefly reporter light, replicate 1: 5032; Renilla control light, replicate 1: 1255

For GPHR [DRSC07075], what does the deposit list?
firefly reporter light, replicate 1: 8651; Renilla control light, replicate 1: 1869

Reprinted from the listing (3 entries):
CG33784 [DRSC12764] — firefly reporter light, replicate 1: 4041; Renilla control light, replicate 1: 1787
CG8916 [DRSC20120] — firefly reporter light, replicate 1: 18838; Renilla control light, replicate 1: 7334
Idh [DRSC10779] — firefly reporter light, replicate 1: 4152; Renilla control light, replicate 1: 2305

More reagents follow.
With CG14316 [DRSC14795], how do the results read?
firefly reporter light, replicate 1: 14108; Renilla control light, replicate 1: 3888

For CG7139 [DRSC11611], how do the results read?
firefly reporter light, replicate 1: 7261; Renilla control light, replicate 1: 2854

Which result is listed for Hem [DRSC11865]?
firefly reporter light, replicate 1: 4832; Renilla control light, replicate 1: 2080

With CG14286 [DRSC14767], what was measured?
firefly reporter light, replicate 1: 15316; Renilla control light, replicate 1: 3820

What is on record for opm [DRSC20141]?
firefly reporter light, replicate 1: 4182; firefly reporter light, replicate 2: 10579; Renilla control light, replicate 1: 1366; Renilla control light, replicate 2: 5121

What is on record for opm [DRSC22135]?
firefly reporter light, replicate 1: 4.38e5; firefly reporter light, replicate 2: 5.65e5; Renilla control light, replicate 1: 1.79e5; Renilla control light, replicate 2: 2.24e5

What did the screen give for mRpL39 [DRSC10255]?
firefly reporter light, replicate 1: 6472; Renilla control light, replicate 1: 2098

What did the screen give for Nedd8 [DRSC02092]?
firefly reporter light, replicate 1: 2433; firefly reporter light, replicate 2: 5047; Renilla control light, replicate 1: 723; Renilla control light, replicate 2: 2800

What did the screen give for sn [DRSC18834]?
firefly reporter light, replicate 1: 13740; Renilla control light, replicate 1: 7648

How did the screen score Wnt2 [DRSC05160]?
firefly reporter light, replicate 1: 16701; Renilla control light, replicate 1: 8456

For Wnt2 [DRSC07574], what was measured?
firefly reporter light, replicate 1: 2544; firefly reporter light, replicate 2: 7475; Renilla control light, replicate 1: 731; Renilla control light, replicate 2: 3162

How did the screen score CG31635 [DRSC02273]?
firefly reporter light, replicate 1: 2329; firefly reporter light, replicate 2: 3186; Renilla control light, replicate 1: 672; Renilla control light, replicate 2: 827

How did the screen score CG31635 [DRSC02274]?
firefly reporter light, replicate 1: 2058; firefly reporter light, replicate 2: 5241; Renilla control light, replicate 1: 736; Renilla control light, replicate 2: 1952

Which result is listed for CG15579 [DRSC18067]?
firefly reporter light, replicate 1: 16208; Renilla control light, replicate 1: 8257

How did the screen score CG14194 [DRSC19549]?
firefly reporter light, replicate 1: 19120; Renilla control light, replicate 1: 8490

For fz [DRSC11348], what was measured?
reporter change call, replicate 1: Wg reporter activity lowered (active); firefly reporter light, replicate 1: 1709; Renilla control light, replicate 1: 2321

What did the screen give for Wdr62 [DRSC00081]?
firefly reporter light, replicate 1: 27632; Renilla control light, replicate 1: 12955

Which result is listed for Wdr62 [DRSC00082]?
firefly reporter light, replicate 1: 18441; Renilla control light, replicate 1: 11459

Which result is listed for Wdr62 [DRSC00701]?
reporter change call, replicate 1: Wg reporter activity raised (active); firefly reporter light, replicate 1: 15196; Renilla control light, replicate 1: 2419

With Wdr62 [DRSC21913], how do the results read?
firefly reporter light, replicate 1: 4.87e5; firefly reporter light, replicate 2: 5.08e5; Renilla control light, replicate 1: 1.24e5; Renilla control light, replicate 2: 1.12e5
